Test results reported in patent US20170020900A1, “METHODS FOR SCREENING ANTIMICROBIAL AND ANTIVIRAL COMPOUNDS AND USES THEREOF” (The General Hospital Corporation, priority 2006, published 2017).
Some entries share one result that the patent states for a list of compounds.

System: E. faecalis MMH594
Test: Automated 384-well C. elegans-E. faecalis infection assay
Type: in vivo, Enterococcus faecalis
Details: 7-day incubation, roughly 90% of untreated worms die

CC1(C)S[C@@H]2[C@H](NC(=O)[C@H](N)c3ccccc3)C(=O)N2[C@H]1C(=O)O [ampicillin]
worms that die from the infection: less than 15%
